Measurements reported in PubChem BioAssay AID493014 (National Center for Advancing Translational Sciences (NCATS), 2011).
About 170 (0.05%) of roughly 340,000 compounds were called active. The shares of active, inactive and inconclusive entries below differ from those in the screen. Calls come from the whole dose curve; as a rule, active = well fitted inhibition curve with a large enough effect in the signal ratio, with a control signal flat (not every such curve was filed as active); inconclusive = small, poorly fitted or top-dose-only effect, or effect the other way, or a change in a side signal; inactive = flat fitted curve, though single readings scatter; the % refers to the signal ratio. Potencies beside an inconclusive call are fits to weak or partial responses and may not hold up.

assay: qHTS Assay to Find Inhibitors of Chronic Active B-Cell Receptor Signaling; conditions: ABC-DLBCL IkBa-CBG/CBR reporter, luminescence ratio (green luciferase fused to IkBa over red control in TMD8 lymphoma cells), 4 h; activity change, negative = inhibition: at 46.1 µM (top of the series) unless noted;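 for activity change, negative = inhibition: plate controls were basal doxycycline-induced cells for no effect and cells given 10 µM MG132 for full effect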
How it was run: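 TMD8 ABC-DLBCL cells carrying doxycycline-inducible green luciferase fused to IkappaBalpha plus unfused red luciferase were exposed to compounds (up to 46 uM) for 4 hrs at 37C. Activity came from the overlap-corrected green/red luminescence ratio.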
Potency is the fitted concentration of half-maximal effect.

SMILES	activity change, negative = inhibition	Potency
CN1C(=O)[C@H](Cc2ccc([N+](=O)[O-])cc2)NC1=S	inconclusive: -5.03%	
O=C(NCc1ccco1)C1CC(c2ccccc2C(F)(F)F)=NO1 (stereo unspecified)	inactive	
CCn1c(CSc2nc(C)cc(C)n2)nnc1SCC(=O)Nc1cccc2ccccc12	inconclusive: 8.52%	
O=C(CN(c1ccccc1)S(=O)(=O)c1ccccc1[N+](=O)[O-])Nc1ccccc1C(=O)N1CCOCC1	inconclusive: -8.36%	
Cc1ccc(NC(=O)c2cc(S(=O)(=O)N3CCc4ccccc43)cn2C)cc1C	inconclusive: 21.5%	
Cn1c(=O)c2nc(SCC(=O)Nc3cc(Cl)cc(Cl)c3)n(C)c2n(C)c1=O	inactive	
Nc1nc(N)nc(-c2cc([N+](=O)[O-])ccc2O)n1	inconclusive: 0.658%	
O=C(O)CC1Sc2ccccc2NC1=O (stereo unspecified)	inconclusive: 11%	
Cc1sc2nc(CN3CCCCC3)nc(Cl)c2c1C	inconclusive: -8.61%	
Cc1ccc(C)c(SCc2nc3sc(C(=O)O)c(C)c3c(=O)[nH]2)c1	inconclusive: -13.3%	
CCCN1C(=O)c2ccccc2NC1c1ccc(Br)cc1 (stereo unspecified)	inconclusive: -5.22%	
CCOC(=O)C1CCN(C(=O)c2ccc(CNS(=O)(=O)c3ccc(C)cc3)cc2)CC1	inconclusive: 3.51%	
CC(C)CCNC(=O)C1CCN(S(=O)(=O)c2ccc(-n3cnnn3)cc2)CC1	inactive	
N#Cc1c(NC(=O)CSc2nc(-c3ccco3)cc(C(F)(F)F)n2)sc2c1CCCC2	inconclusive: -19.6%	
Cc1ccc(C(=O)N2CCN(Cc3ccc4c(c3)OCO4)CC2)cc1[N+](=O)[O-]	inactive	
COc1ccc(/C=C(/NC(=O)c2ccccc2)C(=O)N/N=C/c2sccc2C)cc1	inconclusive: 6.85%	
COc1ccc(C)cc1S(=O)(=O)N(C)CC(=O)Nc1ccc2c(c1)OCCO2		inconclusive: 18.4 µM [falling, single point]
NC(=O)C1(N2CCCCC2)CCN(Cc2ccc(Br)cc2)CC1	inactive	
CC(Oc1cccc(Cl)c1)C(=O)Nc1ccncc1 (stereo unspecified)	inconclusive: 13.4%	
COC(=O)C1Cc2c([nH]c3ccccc23)C2(CCN(Cc3ccccc3)CC2)N1 (stereo unspecified)	inactive	
CCCC1Cc2c(sc(N)c2C#N)CO1 (stereo unspecified)	inconclusive: 4.4%	

SMILES	activity change, negative = inhibition	Potency
O=C(/C=C1\NC2(CCCC2)Cc2ccccc21)C(=O)N/N=C/c1ccccc1O	inconclusive: 8.2%	
CCN(c1ccccc1)S(=O)(=O)c1ccc(C(=O)Nc2ccccn2)cc1	inconclusive: 7.75%	
Cn1ncc2c(NNC(=O)c3ccccc3Cl)ncnc21		inconclusive: 29.1 µM [falling, single point]
CC(C)Nc1nc(Oc2cccc(Cl)c2Cl)cc(C(F)(F)F)n1	inactive	
COc1ccc(C2=NOC(Cn3nc(C(=O)NCc4cccs4)cc3-c3ccccc3)C2)cc1 (stereo unspecified)	inactive	
COc1ccc2nc(NC(=O)Nc3ccccc3OC)sc2c1		inconclusive: 4.47 µM [falling, partial curve, poor fit]
CN(C)/C=C1/Sc2ccccc2C1=O		inconclusive: 22.4 µM [falling, single point]
COCc1nnc(NC(=O)c2ccc(S(=O)(=O)N3CCCc4ccccc43)cc2)o1	inactive	
CCC(C)OC(=O)c1[nH]c2c(c1C)C(=O)CC(c1ccc(N(C)C)cc1)C2 (stereo unspecified)	inactive	
COc1cccc2c1C(=O)c1c(O)c3c(c(O)c1C2=O)C[C@](O)(C(C)=O)C[C@H]3O[C@@H]1C[C@@H](N)[C@@H](O)[C@@H](C)O1		inconclusive: 0.731 µM [rising, full curve]
CCOC(=O)c1cnc2ccc(C(=O)OC)cc2c1NCc1ccco1	inconclusive: 3.52%	
CCn1c(=N)c(S(=O)(=O)c2ccc(Cl)cc2)cc2c(=O)n3ccccc3nc21	inconclusive: 7.37%	
O=C(N/N=C/c1ccsc1)c1cc2ccccc2o1		inconclusive: 17.8 µM [falling, partial curve]
CCCc1ccc(C(=O)NNc2ccccc2F)cc1		inconclusive: 35.5 µM [falling, partial curve]
COc1ccc(NC(=O)/C(C#N)=C/c2ccc(Sc3nncn3C)c([N+](=O)[O-])c2)cc1		inconclusive: 25.1 µM [cytotoxic, single point]
COc1cc(CC(=O)OCC(=O)N2CC(=O)Nc3ccccc32)cc(OC)c1OC	inactive	
COc1ccc(-c2[nH]ncc2N=Nc2ccccc2)cc1	inconclusive: 16.2%	
COCCN1C(=O)N(c2ccc(Cl)cc2)C(=O)C1CC(=O)Nc1cc(OC)cc(OC)c1 (stereo unspecified)	inconclusive: 4.13%	
O=C1CCN(Cc2ccc(Cl)cc2)N1	inactive	
Cc1[nH]c2ccccc2c1CCNC(=O)CCC(=O)c1ccccc1	inactive	
N#CC1=C(N)OC2=C(CCc3ccccc32)C1c1ccccc1Cl (stereo unspecified)	inconclusive: -0.438%	

SMILES	activity change, negative = inhibition	Potency
CCOC(=O)C(Cc1ccc(NC(=O)/C(=C/c2ccc(OC(C)=O)cc2)NC(C)=O)cc1)N1C(=O)c2ccccc2C1=O (stereo unspecified)	inconclusive: -4.07%	
COC(=O)c1ccc2c(c1O)C(=O)c1ccccc1C2=O		inconclusive: 8.2 µM [rising, partial curve]
Cc1nn(CC(C)C)c(Cl)c1C(=O)N(C)CC(=O)Nc1c(Cl)cccc1Cl	inconclusive: 0.0148%	
CCN1C(=O)c2ccc(C(=O)Nc3cccc(C(=O)O)c3)cc2C1=O		inconclusive: 12.6 µM [falling, partial curve]
CCc1ccc(CNc2ccc(N3CCN(C(C)=O)CC3)cc2)cc1	inconclusive: 1.29%	
COc1cccc(NC(=O)CSc2nnc3cc(C)nc(N)n23)c1	inconclusive: 19.9%	
CCCCn1c(N)c(N(Cc2ccccc2)C(=O)COc2ccccc2F)c(=O)[nH]c1=O	inactive	
COc1ccc(S(=O)(=O)N(C)C[C@H]2Oc3ccc(NS(=O)(=O)c4ccccc4)cc3C(=O)N([C@H](C)CO)C[C@@H]2C)cc1	inconclusive: -4.28%	
Cc1c(C2(O)CCCCC2)[nH]c2ccc(C(F)(F)F)cc12	inconclusive: 2.57%	
N#CCOc1ccccc1/C=C/c1nc2ccccc2c(=O)[nH]1	inactive	
O=C(COC(=O)c1ccccn1)NC12CC3CC(CC(C3)C1)C2	inactive	
COc1ccc(Cn2c(=O)[nH]c3cc(C(=O)Nc4ccccc4C)ccc32)cc1	inactive	
CCCN(CCC)S(=O)(=O)c1ccc(C(=O)Nc2nc(-c3ccccc3)c(C(=O)OCC)s2)cc1	inconclusive: -25.7%	
CN(NC1OC(=O)c2ccccc21)c1ncc(Cl)cc1C(F)(F)F (stereo unspecified)	inconclusive: 20.1%	
Nc1c(-c2ccccc2)cnn1-c1cccc(C(F)(F)F)c1	inactive	
COC(=O)CN1C(=O)C(C)(C)Oc2ccc(C(=O)NC3CCCC3)cc21	inactive	
Cc1cc(C)n(-c2ccc(C(=O)Nc3ccc(N4CCOCC4)cc3)cc2)n1	inactive	
COC(=O)Oc1ccc(/C=N/NC(=O)CSCc2ccccc2Br)cc1OC	inconclusive: -5.89%	
CCCCC(=O)Nc1ccc(NC(=S)NC(=O)CC)cc1OC	inactive	
Cc1csc(SCC(=O)Nc2nc(-c3ccccc3)cs2)n1	inconclusive: -3.57%	
COc1ccc(OC)c(Nc2ncnc3c2cnn3-c2ccc(C)cc2)c1	inconclusive: 8.54%	

A second format for some results above.
SMILES | activity change, negative = inhibition | Potency
O=C1CCN(Cc2ccc(Cl)cc2)N1 | inactive | 
Cc1[nH]c2ccccc2c1CCNC(=O)CCC(=O)c1ccccc1 | inactive | 
N#CC1=C(N)OC2=C(CCc3ccccc32)C1c1ccccc1Cl (stereo unspecified) | inconclusive: -0.438% | 
CCOC(=O)C(Cc1ccc(NC(=O)/C(=C/c2ccc(OC(C)=O)cc2)NC(C)=O)cc1)N1C(=O)c2ccccc2C1=O (stereo unspecified) | inconclusive: -4.07% | 
COC(=O)c1ccc2c(c1O)C(=O)c1ccccc1C2=O |  | inconclusive: 8.2 µM [rising, partial curve]
Cc1nn(CC(C)C)c(Cl)c1C(=O)N(C)CC(=O)Nc1c(Cl)cccc1Cl | inconclusive: 0.0148% | 
CCN1C(=O)c2ccc(C(=O)Nc3cccc(C(=O)O)c3)cc2C1=O |  | inconclusive: 12.6 µM [falling, partial curve]
CCc1ccc(CNc2ccc(N3CCN(C(C)=O)CC3)cc2)cc1 | inconclusive: 1.29% | 
COc1cccc(NC(=O)CSc2nnc3cc(C)nc(N)n23)c1 | inconclusive: 19.9% | 
CCCCn1c(N)c(N(Cc2ccccc2)C(=O)COc2ccccc2F)c(=O)[nH]c1=O | inactive | 
COc1ccc(S(=O)(=O)N(C)C[C@H]2Oc3ccc(NS(=O)(=O)c4ccccc4)cc3C(=O)N([C@H](C)CO)C[C@@H]2C)cc1 | inconclusive: -4.28% | 
Cc1c(C2(O)CCCCC2)[nH]c2ccc(C(F)(F)F)cc12 | inconclusive: 2.57% | 
N#CCOc1ccccc1/C=C/c1nc2ccccc2c(=O)[nH]1 | inactive | 
O=C(COC(=O)c1ccccn1)NC12CC3CC(CC(C3)C1)C2 | inactive | 
COc1ccc(Cn2c(=O)[nH]c3cc(C(=O)Nc4ccccc4C)ccc32)cc1 | inactive | 
CCCN(CCC)S(=O)(=O)c1ccc(C(=O)Nc2nc(-c3ccccc3)c(C(=O)OCC)s2)cc1 | inconclusive: -25.7% | 
CN(NC1OC(=O)c2ccccc21)c1ncc(Cl)cc1C(F)(F)F (stereo unspecified) | inconclusive: 20.1% | 
Nc1c(-c2ccccc2)cnn1-c1cccc(C(F)(F)F)c1 | inactive | 
COC(=O)CN1C(=O)C(C)(C)Oc2ccc(C(=O)NC3CCCC3)cc21 | inactive | 
Cc1cc(C)n(-c2ccc(C(=O)Nc3ccc(N4CCOCC4)cc3)cc2)n1 | inactive | 
COC(=O)Oc1ccc(/C=N/NC(=O)CSCc2ccccc2Br)cc1OC | inconclusive: -5.89% | 
CCCCC(=O)Nc1ccc(NC(=S)NC(=O)CC)cc1OC | inactive | 

The list continues:

SMILES	activity change, negative = inhibition	Potency
COc1cccc(CN2C(=O)c3ccccc3C2C(=O)NCC2CCCO2)c1 (stereo unspecified)	inactive	
O=C(COC(=O)c1cccc(S(=O)(=O)N2CCCCC2)c1)NC1CCCCC1	inconclusive: 4.02%	
CCC1CCCCN1S(=O)(=O)c1ccc(NC(=O)c2ccncc2)cc1 (stereo unspecified)		inconclusive: 35.5 µM [falling, single point]
CC(C)Oc1ccc(/C(O)=C2/C(=O)C(=O)N(CCN(C)C)C2c2ccco2)cc1 (stereo unspecified)	inconclusive: -0.826%	
CCc1nnc2n1N=C(c1ccc(Br)cc1)CS2	inactive	
Cc1cccc(N2CCN(S(=O)(=O)c3ccc(F)c(C(=O)Nc4ccc(C(C)C)cc4)c3)CC2)c1C	inactive	
Cc1ncc(CO)c2cc(C(N)=O)c(=Nc3ccccc3)oc12	inconclusive: 5.58%	
C#CCOCCOCCOCCNc1nc(N2CCN(C(=O)CCCCCCCCCCNC(=O)[C@H](CCCCN)n3cc(CCO)nn3)CC2)nc(N2CCN(C(=O)CCCCCCCCCCNC(=O)[C@H](CCCCN)n3cc(CCO)nn3)CC2)n1	inconclusive: -1.06%	
CCOC(=O)COc1ccc2c(=O)c(-c3ccc(OC)c(OC)c3)c(C(=O)OCC)oc2c1		inconclusive: 35.5 µM [falling, single point]
O=C(N/N=C/c1cccc2cccnc12)c1ccccc1O		inconclusive: 35.5 µM [cytotoxic, single point]
S=C(Nc1ccc2snnc2c1)N1CCN(c2ccccn2)CC1	inconclusive: 28.2%	
Cc1noc(C)c1COc1ccc(C(=O)NCC2CCCO2)cc1 (stereo unspecified)	inconclusive: 6.95%	
CCN(C(=O)COC(=O)c1ccccc1NC(=O)c1ccco1)C1CCS(=O)(=O)C1 (stereo unspecified)		inconclusive: 12.6 µM [falling, partial curve]
Clc1ccc(SCCOCCN2CCCCCC2)cc1	inactive	
O=C(N/N=C\c1ccc(Cl)cc1)C1=NOC2COC3(CCN(c4ccc([N+](=O)[O-])cc4)CC3)OCC12 (stereo unspecified)	inactive	
CNC(=O)c1cccc(NC(=O)C(C)c2ccc3cc(OC)ccc3c2)c1 (stereo unspecified)		inconclusive: 11.2 µM [falling, partial curve, poor fit]
CCCc1cc(C(=O)Nc2cccc(Cl)c2)no1		inconclusive: 6.51 µM [falling, single point]
Cc1ccccc1CN1CCC(Oc2ccc(C(=O)N3CCCC3)cc2)CC1	inactive	
